In patent US20060172360A1:
Results are given in words; binding and its absence hold for the method and conditions named. For part of these data: In cells and extracts the contact can be indirect. Some results given as binding are weak or reduced against the parent protein; the word gives no strength. Where a sequence is shown, tags or fusion partners need not be part of it.

By UniProt entry, the sequences of proteins in these tests, tags left out.
UniProt O14733: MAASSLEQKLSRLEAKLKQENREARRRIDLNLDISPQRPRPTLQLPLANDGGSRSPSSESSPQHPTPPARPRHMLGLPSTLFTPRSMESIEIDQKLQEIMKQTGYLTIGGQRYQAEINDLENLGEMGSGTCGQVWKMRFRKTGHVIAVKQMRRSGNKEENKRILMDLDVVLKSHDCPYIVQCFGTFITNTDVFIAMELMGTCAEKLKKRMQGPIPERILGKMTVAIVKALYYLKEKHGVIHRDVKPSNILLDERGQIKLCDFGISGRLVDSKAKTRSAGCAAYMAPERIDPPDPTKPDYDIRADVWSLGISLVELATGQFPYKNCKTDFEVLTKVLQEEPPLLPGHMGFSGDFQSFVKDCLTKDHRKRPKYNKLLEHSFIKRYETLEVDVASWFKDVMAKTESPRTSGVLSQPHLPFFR

Legend:
[1] = molecular target: FLAG-MKK7 (human MAP kinase kinase 7 ligated with FLAG-tag at its N-terminus) (human) (UniProt O14733); experiment: co-immunoprecipitation and western blot (FIG. 7)
[2] = molecular target: FLAG-MKK7 (human MAP kinase kinase 7 ligated with FLAG-tag at its N-terminus) (human) (UniProt O14733); experiment: summary of co-immunoprecipitation and kinase assays
[3] = molecular target: FLAG-MKK7 (human MAP kinase kinase 7 ligated with FLAG-tag at its N-terminus) (human) (UniProt O14733); experiment: co-expression in HEK293T cells, immunoprecipitation with anti-HA affinity matrix, western blot with anti-FLAG M2

Measured: binding

B1: HA-JIK (human JNK/SAPK-inhibitory kinase ligated with HA-tag at its N-terminus) (enzyme, UniProt Q9H2K8 1-898, looked up, not shown: small tags and cut ends)
chain: MRKGVLKDPEIADLFYKDDPEELFIGLHEIGHGSFGAVYFATNAHTSEVVAIKKMSYSGKQTHEKWQDILKEVKFLRQLKHPNTIEYKGCYLKEHTAWLVMEYCLGSASDLLEVHKKPLQEVEIAAITHGALHGLAYLHSHALIHRDIKAGNILLTEPGQVKLADFGSASMASPANSFVGTPYWMAPEVILAMDEGQYDGKVDIWSLGITCIELAERKPPLFNMNAMSALYHIAQNDSPTLQSNEWTDSFRRFVDYCLQKIPQERPTSAELLRHDFVRRDRPLRVLIDLIQRTKDAVRELDNLQYRKMKKILFQETRNGPLNESQEDEEDSEHGTSLNREMDSLGSNHSIPSMSVSTGSQSSSVNSMQEVMDESSSELVMMHDDESTINSSSSVVHKKDHVFIRDEAGHGDPRPEPRPTQSVQSQALHYRNRERFATIKSASLVTRQIHEHEQENELREQMSGYKRMRRQHQKQLIALENKLKAEMDEHRLKLQKEVETHANNSSIELEKLAKKQVAIIEKEAKVAAADEKKFQQQILAQQKKDLTTFLESQKKQYKICKEKIKEEMNEDHSTPKKEKQERISKHKENLQHTQAEEEAHLLTQQRLYYDKNCRFFKRKIMIKRHEVEQQNIREELNKKRTQKEMEHAMLIRHDESTRELEYRQLHTLQKLRMDLIRLQHQTELENQLEYNKRRERELHRKHVMELRQQPKNLKAMEMQIKKQFQDTCKVQTKQYKALKNHQLEVTPKNEHKTILKTLKDEQTRKLAILAEQYEQSINEMMASQALRLDEAQEAECQALRLQLQQEMELLNAYQSKIKMQTEAQHERELQKLEQRVSLRRAHLEQKIEEELAALQKERSERIKNLLERQEREIETFDMESLRMGFGNLVTLDFPKEDYR
binds: [1] | [2] | [3]
